The results in this text go back to paper PMC11705064.

The experiment deals with epidermal growth factor receptor (EGFR) (human (endogenous in HCT-116 and DLD-1)) (UniProt P00533). The experiment in a line: co-IP; lysates of HCT-116 and DLD-1 cells; indicated antibodies and IgG agarose overnight at 4 °C; washed thrice; immunoblotting.

These are yes or no findings as the source states them, for the method shown. Binding seen in cells or lysates may run through a third protein. Some entries that bind do so weakly or less than the wild type. Tags and fused reporters may be left off the sequences shown.

B1: solute carrier family 5 (sodium/glucose cotransporter), member 1 (SLC5A1) (protein, UniProt P13866 1-664)
chain: MDSSTWSPKTTAVTRPVETHELIRNAADISIIVIYFVVVMAVGLWAMFSTNRGTVGGFFLAGRSMVWWPIGASLFASNIGSGHFVGLAGTGAASGIAIGGFEWNALVLVVVLGWLFVPIYIKAGVVTMPEYLRKRFGGQRIQVYLSLLSLLLYIFTKISADIFSGAIFINLALGLNLYLAIFLLLAITALYTITGGLAAVIYTDTLQTVIMLVGSLILTGFAFHEVGGYDAFMEKYMKAIPTIVSDGNTTFQEKCYTPRADSFHIFRDPLTGDLPWPGFIFGMSILTLWYWCTDQVIVQRCLSAKNMSHVKGGCILCGYLKLMPMFIMVMPGMISRILYTEKIACVVPSECEKYCGTKVGCTNIAYPTLVVELMPNGLRGLMLSVMLASLMSSLTSIFNSASTLFTMDIYAKVRKRASEKELMIAGRLFILVLIGISIAWVPIVQSAQSGQLFDYIQSITSYLGPPIAAVFLLAIFWKRVNEPGAFWGLILGLLIGISRMITEFAYGTGSCMEPSNCPTIICGVHYLYFAIILFAISFITIVVISLLTKPIPDVHLYRLCWSLRNSKEERIDLDAEEENIQEGPKETIEIETQVPEKKKGIFRRAYDLFCGLEQHGAPKMTEEEEKAMKMKMTDTSEKPLWRTVLNVNGIILVTVAVFCHAYFA
For the molecule B1, the binding result is recorded as “binds”.
